The source of these data is publication PMC8092281, “Two Distinct Conformations in 34 FliF Subunits Generate Three Different Symmetries within the Flagellar MS-Ring” (mBio, 2021).

Test [1] concerns the target T1, Salmonella FliF (MS-ring of the purified MS-FliG ring complex) (Salmonella) (UniProt P15928).
T1 sequence: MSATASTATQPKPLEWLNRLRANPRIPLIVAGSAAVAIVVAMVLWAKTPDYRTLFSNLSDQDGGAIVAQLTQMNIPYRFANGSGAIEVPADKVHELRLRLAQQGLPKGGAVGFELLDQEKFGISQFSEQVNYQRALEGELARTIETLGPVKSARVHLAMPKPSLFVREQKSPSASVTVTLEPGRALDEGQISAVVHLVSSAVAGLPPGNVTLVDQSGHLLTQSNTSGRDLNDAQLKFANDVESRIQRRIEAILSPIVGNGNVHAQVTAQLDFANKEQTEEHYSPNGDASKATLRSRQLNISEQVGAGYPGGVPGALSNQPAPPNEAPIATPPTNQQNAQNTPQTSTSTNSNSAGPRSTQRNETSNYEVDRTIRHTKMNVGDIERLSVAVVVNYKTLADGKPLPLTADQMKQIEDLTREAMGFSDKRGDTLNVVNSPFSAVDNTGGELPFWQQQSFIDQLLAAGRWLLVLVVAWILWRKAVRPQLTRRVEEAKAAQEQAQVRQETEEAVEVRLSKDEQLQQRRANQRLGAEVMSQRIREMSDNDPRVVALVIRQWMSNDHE
The experiment in a line: co-sedimentation; FliF and FliG co-expressed in Salmonella; membranes solubilised with DDM, ultracentrifugation and 15% to 40% sucrose density gradient; fractions containing FliF and FliG collected.

Test [2] concerns the target Aa-FliF(58-213), fragment of FliF from Aquifex aeolicus (N-terminal half of the periplasmic region, domains D1 and D2) (Aquifex aeolicus) (UniProt O67241). The experiment in a line: crystal structure; His-FliF(58-213) crystallised at 4°C from 100 mM Na/K phosphate pH 6.2, 2.5 M NaCl; space group H3, two molecules in the asymmetric unit; 2.3 Å; both purified.

Results are given in words; binding and its absence hold for the method and conditions named. For some assays here: Binding seen in cells or lysates may run through a third protein. Some binding calls cover weakened binding; strength is not graded here.

B1: Salmonella FliG (of the MS-FliG ring complex) (protein, UniProt P0A1J9 1-331)
chain: MSNLSGTDKSVILLMTIGEDRAAEVFKHLSTREVQALSTAMANVRQISNKQLTDVLSEFEQEAEQFAALNINANEYLRSVLVKALGEERASSLLEDILETRDTTSGIETLNFMEPQSAADLIRDEHPQIIATILVHLKRSQAADILALFDERLRHDVMLRIATFGGVQPAALAELTEVLNGLLDGQNLKRSKMGGVRTAAEIINLMKTQQEEAVITAVREFDGELAQKIIDEMFLFENLVDVDDRSIQRLLQEVDSESLLIALKGAEPPLREKFLRNMSQRAADILRDDLANRGPVRLSQVENEQKAILLIVRRLAETGEMVIGSGEDTYV
Consider B1, for which the binding result in test [1] is “binds”.

B2: Aa-FliF(58-213), fragment of FliF from Aquifex aeolicus (N-terminal half of the periplasmic region, domains D1 and D2) (domain or fragment, UniProt O67241 58-213)
chain: PDDLNAVVTELDKEGVKYKISPDGRTIYVPENVARELRLKLAAKGVPRKGIVGYELFDKSGIVLSRFQQLVNFKRAIEGELAKTIMSLDCVEFARVHIVLPEKSLFIREEEEAKASVFLKLKPGCELTPEQVKAIRNLVSGSVENLKPSQVVVVDD
Consider B2, for which the binding entry in test [2] was “no binding”.
